# Results as given in PubChem BioAssay AID504444 (National Center for Advancing Translational Sciences (NCATS), 2011).
# Among all 360,000 compounds or so, about 7,500 (2.1%) were called active. The shares of active, inactive and inconclusive entries below differ from those in the screen. The call rests on the fitted dose curve; in most records, active means well fitted inhibition curve with a large enough effect; inconclusive means small, poorly fitted or top-dose-only effect, or effect the other way; inactive means flat fitted curve, though single readings scatter. Potencies of inconclusive entries are doubtful fits and often do not repeat.
# Experiment: Nrf2 qHTS screen for inhibitors; further: nearly all actives have a fitted effect of over 60% in size
# Conditions: A549 ARE-Fluc reporter, luciferase luminescence, 18-24 h; series mostly up to 46 µM
# Procedure, shortened: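 A549 ARE_Fluc cells, 5000/well, 5% FBS OPTI-MEM; compounds in dose-response, 18-24 h at 37 °C/5% CO2; CellTiter-Fluor viability read (Ex 405/Em 525), then BugLite luciferase luminescence = Nrf2 activity.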
# Potency means the concentration at half of the fitted maximal effect.
row,SMILES,Potency
1,Cc1noc(C)c1COc1cccc(C(=O)Nc2ccccc2)c1,"inconclusive: 2.31 µM [falling, partial curve, poor fit]"
2,CSc1ccccc1OCc1cc(C(=O)N2CCCC2c2nonc2C)no1 (stereo unspecified),"inconclusive: 1.16 µM [activator, full curve]"
3,COc1cccc(/C=C/C(=O)Nc2ccc(N3CCOCC3)cc2)c1OC,"inconclusive: 2.06 µM [activator, single point]"
4,CN(C)S(=O)(=O)N1CCC(Oc2cccc(C(=O)NCCC3=CCCCC3)c2)CC1,"inconclusive: 18.4 µM [falling, partial curve, poor fit]"
5,CCCCc1ncc(CN2CCC(CC3CCCCO3)(C(=O)OCC)CC2)[nH]1 (stereo unspecified),"inconclusive: 6.51 µM [activator, single point]"
6,O=C(Cn1nc(C(=O)O)c2ccccc2c1=O)Nc1ccccc1C(F)(F)F,"inconclusive: 16.4 µM [falling, single point]"
7,COCCN(Cc1cc2cc3c(cc2nc1Cl)OCO3)C(=O)c1ccc(C)cc1,"inconclusive: 25.9 µM [falling, single point]"
8,Nc1ccc2cn[nH]c2c1,"inconclusive: 11.6 µM [falling, partial curve, poor fit]"
9,NNc1nnc2c3cc(F)ccc3n(CCc3ccccc3)c2n1,"inconclusive: 16.4 µM [falling, partial curve]"
10,CCCNC(=O)N1CCN(S(=O)(=O)c2ccc(C)cc2)CC1,"inconclusive: 14.6 µM [activator, partial curve, poor fit]"
11,OC(COc1cccc2ccccc12)CN1CCN(c2ccc(Cl)cc2)CC1 (stereo unspecified),inactive
12,CCCn1c(N)c(C(=O)CSc2nnc(Cc3ccccc3)o2)c(=O)n(C)c1=O,"inconclusive: 29.1 µM [falling, single point]"
13,CC(C)(C)C1CCc2nc(NC(=O)Cc3ccc(Cl)cc3)sc2C1 (stereo unspecified),"inconclusive: 10.3 µM [activator, partial curve]"
14,CCC(Sc1nncn2c1cc1sccc12)C(=O)Nc1cccc(OC)c1 (stereo unspecified),"inconclusive: 29.1 µM [falling, single point]"
15,CCn1cc(SCC(=O)Nc2cc(C)on2)c2ccccc21,"inconclusive: 6.51 µM [falling, partial curve, poor fit]"
16,CCc1ccc(NC(=O)c2ccc(S(=O)(=O)NCc3cccnc3)cc2)cc1,"inconclusive: 11.6 µM [falling, partial curve, poor fit]"
17,CCC(CC)C(=O)Nc1cccc(/C(C)=N\NC(=O)c2ccc(C)s2)c1,"inconclusive: 11.6 µM [falling, partial curve, poor fit]"
18,CCOc1ncccc1C(=O)Nc1ccc(Cl)c(S(=O)(=O)N2CCCC2)c1,active: 18.4 µM
19,CCCCCCN1N=C(C)C(C(=O)c2ccc(Cl)cc2)C1=O (stereo unspecified),"inconclusive: 18.4 µM [falling, single point]"
20,Cc1cccc(-c2noc(C3CC(=O)N(c4ccc5c(c4)OCCO5)C3)n2)c1 (stereo unspecified),inactive
21,CC(C)C[C@H](NC(=O)c1[nH]cnc1C(=O)N[C@@H](C)c1ccccc1)C(=O)OC(C)(C)C,"inconclusive: 29.1 µM [falling, single point]"
22,COc1cc(SC#N)ccc1N=Cc1c(C)[nH]n(-c2ccc(Cl)cc2)c1=O,inactive

row,SMILES,Potency
1,CCN1C[C@@H]2[C@@H]3C(=O)N(C)C(=O)[C@@H]3[C@](CC)(C1=O)N2C(=O)c1ccc(Cl)cc1,inactive
2,CCOc1ccc(C2c3c(-c4ccccc4O)n[nH]c3C(=O)N2Cc2ccncc2)cc1 (stereo unspecified),inactive
3,Cc1ncoc1C(=O)Nc1ncc([N+](=O)[O-])s1,"inconclusive: 0.517 µM [activator, full curve]"
4,CCc1ccc(C(=O)c2cn(CC(=O)Nc3ccc(F)cc3)c3cc4c(cc3c2=O)OCO4)cc1,"inconclusive: 29.1 µM [falling, single point]"
5,Cc1cc(C)c2cc3c(N)c(C(=O)N4CCOCC4)sc3nc2c1,"inconclusive: 23.1 µM [activator, single point]"
6,CCOC(=O)Cn1c(CN2CCN(C(c3ccccc3)c3ccccc3)CC2)nc2c1c(=O)n(C)c(=O)n2C,"inconclusive: 23.1 µM [falling, partial curve, poor fit]"
7,CC1CN(Cc2ccccc2)C(=O)N(c2ccccc2)C1=O (stereo unspecified),inactive
8,COCCn1cnc2c(c1=O)c1nc3ccccc3nc1n2/N=C/c1ccc(OC)c(OC)c1,inactive
9,Cc1ccc(NC(=O)c2ccc(NS(=O)(=O)/C=C/c3ccccc3)cc2)nc1,active: 20.6 µM
10,Cc1cccc(OC(C)C(=O)Nc2ccccc2C(=O)N2CCCCC2)c1 (stereo unspecified),"inconclusive: 14.6 µM [falling, partial curve, poor fit]"
11,Cc1nnc(SCC2=C(C(=O)O)N3C(=O)C(NC(=O)COc4ccccc4)C3SC2)s1 (stereo unspecified),inactive
12,CN(/N=C/c1cccnc1)c1cnc2ccccc2n1,"inconclusive: 9.2 µM [activator, partial curve]"
13,Cc1ccc(NNC(=S)Nc2ccc(C(C)C)cc2)c(C)c1,"inconclusive: 2.59 µM [activator, single point]"
14,COc1cc(/C=N/n2cnnc2)ccc1OS(=O)(=O)c1ccccc1[N+](=O)[O-],inactive
15,O=C(COC(=O)Cc1ccccc1F)Nc1ccc(F)cc1F,inactive
16,O=C(Nc1ccc(Cl)cc1)N(C1=NCCC1)c1ccc(OC(F)F)cc1,"inconclusive: 23.1 µM [activator, single point]"
17,CCCc1nc2oc3ccccc3c(=O)c2c(=O)n1-c1ccc(C)cc1,"inconclusive: 9.2 µM [activator, partial curve]"
18,Cc1cccc(C(=O)Nc2ccc(N3CCN(c4ccc(C(F)(F)F)cn4)CC3)nc2)c1,"inconclusive: 0.731 µM [falling, partial curve, poor fit]"
19,COc1ccc(NC(=O)CCc2c(C)nn(-c3ccc(N4CCOCC4)nn3)c2C)cc1Cl,"inconclusive: 5.17 µM [falling, full curve, poor fit]"
20,Cc1ccc2occ(CC(=O)Nc3ccc(S(N)(=O)=O)cc3)c2c1,inactive
21,CCOc1ccccc1C1c2[nH]c3ccccc3c2C[C@H]2C(=O)N(C3CCN(Cc4ccccc4)CC3)CC(=O)N12 (stereo partly specified),"inconclusive: 29.1 µM [falling, single point]"
22,CCC(C)c1ccccc1OCCn1c(CCNC(=O)C2CCCCC2)nc2ccccc21 (stereo unspecified),"inconclusive: 29.1 µM [falling, partial curve, poor fit]"

# Four consecutive entries from above, for reference:
row,SMILES,Potency
20,Cc1cccc(-c2noc(C3CC(=O)N(c4ccc5c(c4)OCCO5)C3)n2)c1 (stereo unspecified),inactive
21,CC(C)C[C@H](NC(=O)c1[nH]cnc1C(=O)N[C@@H](C)c1ccccc1)C(=O)OC(C)(C)C,"inconclusive: 29.1 µM [falling, single point]"
22,COc1cc(SC#N)ccc1N=Cc1c(C)[nH]n(-c2ccc(Cl)cc2)c1=O,inactive
1,CCN1C[C@@H]2[C@@H]3C(=O)N(C)C(=O)[C@@H]3[C@](CC)(C1=O)N2C(=O)c1ccc(Cl)cc1,inactive

# Remaining list, next part.

row,SMILES,Potency
1,COc1ccc([N+](=O)[O-])cc1NCc1ccccc1,"inconclusive: 18.4 µM [activator, single point]"
2,Nc1c2c(nc3ccccc13)CCCC2,inactive
3,Nn1cnc2scc(-c3ccc(Cl)cc3)c2c1=O,inactive
4,CCCCn1nnc(N(C(=O)c2cccs2)C(=O)c2cccs2)n1,"inconclusive: 8.2 µM [activator, partial curve]"
5,CC(C)c1nnc(NC(=O)C2CCN(c3cnccn3)CC2)s1,"inconclusive: 13 µM [falling, partial curve, poor fit]"
6,Cc1cccc(N2Cc3ccc(Br)cc3C2)c1,"inconclusive: 18.4 µM [activator, single point]"
7,Nc1nn(-c2ccccc2)c(N)c1N=Nc1ccccc1F,"inconclusive: 16.4 µM [activator, single point]"
8,CC(C)=CCN1CCN(Cc2cccn2-c2ccccn2)CC1CCO (stereo unspecified),inactive
9,CNc1cccc(S(=O)(=O)N2CCCN(S(=O)(=O)c3ccc4c(c3)OCCO4)CC2)c1,inactive
10,Cc1ccc(-n2c([S-])c(C(=O)NC(C)c3ccccc3)[n+]3ccccc23)cc1 (stereo unspecified),"inconclusive: 10.3 µM [activator, partial curve, poor fit]"
11,CCC(Oc1ccccc1)C(=O)Nc1nnc(S(=O)(=O)Nc2ccccc2)s1 (stereo unspecified),"inconclusive: 5.17 µM [activator, partial curve]"
12,COCCNC(=O)CCC(=O)NNc1nc2ccccc2c2nc(-c3ccccc3)nn12,"inconclusive: 2.91 µM [activator, partial curve]"
13,Cc1ccc(C(=O)Nc2ccc3c(c2)OCCO3)c(Cl)c1,"inconclusive: 18.4 µM [falling, single point]"
14,COc1cc(NC(=O)CSc2nnc3n2C(C)(C)Cc2ccccc2-3)cc(OC)c1,"inconclusive: 1.3 µM [falling, partial curve, poor fit]"
15,C/C(=N\NC(=O)c1cccc(S(=O)(=O)N2CCCC2)c1)c1ccccc1F,"inconclusive: 13 µM [activator, partial curve]"
16,O=C(CSc1nnc(Cc2cccs2)n1Cc1ccco1)Nc1cccc(Cl)c1,"inconclusive: 13 µM [falling, partial curve, poor fit]"
17,Cc1cc(C(=O)Cn2nc(C(=O)O)c3ccccc3c2=O)c(C)n1-c1ccc(F)cc1,"inconclusive: 1.84 µM [falling, partial curve, poor fit]"
18,Cc1ccc(S(=O)(=O)N2CCCC2)cc1C(=O)Nc1ccc(-n2cnnn2)cc1,"inconclusive: 13 µM [falling, partial curve, poor fit]"
19,O=C(CN1CCC(c2nc3ccccc3s2)CC1)NCc1cccs1,active: 7.31 µM
20,COc1cc(OCc2ccc(C)cc2)ccc1CNC[C@H]1O[C@@H](n2cnc(C(N)=O)n2)[C@H](O)[C@@H]1O,inactive
21,Clc1cccc(/C=N/Nc2nnc(Cl)c3ccccc23)c1,"inconclusive: 3.66 µM [activator, partial curve, poor fit]"
22,COc1cccc(OCc2cc(C(=O)N3CCC(c4ccncc4)CC3)no2)c1,active: 5.17 µM
